Assay results as given in the supplement of paper PMC10849652.
The list shows a part of the results.

The chains behind the UniProt entries cited, without tags or fusion partners. Where a name states a change or a piece, a line headed by the entry shows the natural chain unless it says otherwise.
UniProt Q15008: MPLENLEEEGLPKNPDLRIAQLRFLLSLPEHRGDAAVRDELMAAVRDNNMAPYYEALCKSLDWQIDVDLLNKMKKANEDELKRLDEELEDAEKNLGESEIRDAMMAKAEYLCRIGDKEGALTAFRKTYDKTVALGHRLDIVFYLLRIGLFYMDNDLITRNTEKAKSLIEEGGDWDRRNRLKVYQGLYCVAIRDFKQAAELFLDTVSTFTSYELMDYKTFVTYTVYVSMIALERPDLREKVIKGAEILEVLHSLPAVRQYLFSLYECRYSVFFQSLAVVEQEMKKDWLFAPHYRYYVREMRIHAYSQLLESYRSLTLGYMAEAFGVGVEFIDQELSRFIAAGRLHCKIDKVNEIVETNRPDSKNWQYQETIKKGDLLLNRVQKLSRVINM
UniProt Q8WUK0: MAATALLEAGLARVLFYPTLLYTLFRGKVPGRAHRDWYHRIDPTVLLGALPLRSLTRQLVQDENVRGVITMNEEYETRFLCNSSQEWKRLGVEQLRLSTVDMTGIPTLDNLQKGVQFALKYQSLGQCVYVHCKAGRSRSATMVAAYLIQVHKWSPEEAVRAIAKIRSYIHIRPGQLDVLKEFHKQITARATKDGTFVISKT
UniProt Q969U7: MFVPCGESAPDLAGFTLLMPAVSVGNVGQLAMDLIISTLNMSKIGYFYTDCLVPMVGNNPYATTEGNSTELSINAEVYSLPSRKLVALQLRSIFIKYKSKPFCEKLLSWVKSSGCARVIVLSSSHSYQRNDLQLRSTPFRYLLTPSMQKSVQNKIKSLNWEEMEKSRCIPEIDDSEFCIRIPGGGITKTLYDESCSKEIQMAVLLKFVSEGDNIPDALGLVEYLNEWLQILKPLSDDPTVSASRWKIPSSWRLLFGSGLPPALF
UniProt O00487, whole entry, looked up: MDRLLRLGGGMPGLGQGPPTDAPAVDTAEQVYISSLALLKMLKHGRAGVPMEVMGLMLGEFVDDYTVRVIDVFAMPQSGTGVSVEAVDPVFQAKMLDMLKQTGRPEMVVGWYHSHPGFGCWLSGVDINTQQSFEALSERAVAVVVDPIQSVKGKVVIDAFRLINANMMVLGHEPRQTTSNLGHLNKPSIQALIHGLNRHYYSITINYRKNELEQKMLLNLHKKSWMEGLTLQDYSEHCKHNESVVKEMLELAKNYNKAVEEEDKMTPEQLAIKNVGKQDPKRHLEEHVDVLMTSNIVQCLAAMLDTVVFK
UniProt Q8NDX1: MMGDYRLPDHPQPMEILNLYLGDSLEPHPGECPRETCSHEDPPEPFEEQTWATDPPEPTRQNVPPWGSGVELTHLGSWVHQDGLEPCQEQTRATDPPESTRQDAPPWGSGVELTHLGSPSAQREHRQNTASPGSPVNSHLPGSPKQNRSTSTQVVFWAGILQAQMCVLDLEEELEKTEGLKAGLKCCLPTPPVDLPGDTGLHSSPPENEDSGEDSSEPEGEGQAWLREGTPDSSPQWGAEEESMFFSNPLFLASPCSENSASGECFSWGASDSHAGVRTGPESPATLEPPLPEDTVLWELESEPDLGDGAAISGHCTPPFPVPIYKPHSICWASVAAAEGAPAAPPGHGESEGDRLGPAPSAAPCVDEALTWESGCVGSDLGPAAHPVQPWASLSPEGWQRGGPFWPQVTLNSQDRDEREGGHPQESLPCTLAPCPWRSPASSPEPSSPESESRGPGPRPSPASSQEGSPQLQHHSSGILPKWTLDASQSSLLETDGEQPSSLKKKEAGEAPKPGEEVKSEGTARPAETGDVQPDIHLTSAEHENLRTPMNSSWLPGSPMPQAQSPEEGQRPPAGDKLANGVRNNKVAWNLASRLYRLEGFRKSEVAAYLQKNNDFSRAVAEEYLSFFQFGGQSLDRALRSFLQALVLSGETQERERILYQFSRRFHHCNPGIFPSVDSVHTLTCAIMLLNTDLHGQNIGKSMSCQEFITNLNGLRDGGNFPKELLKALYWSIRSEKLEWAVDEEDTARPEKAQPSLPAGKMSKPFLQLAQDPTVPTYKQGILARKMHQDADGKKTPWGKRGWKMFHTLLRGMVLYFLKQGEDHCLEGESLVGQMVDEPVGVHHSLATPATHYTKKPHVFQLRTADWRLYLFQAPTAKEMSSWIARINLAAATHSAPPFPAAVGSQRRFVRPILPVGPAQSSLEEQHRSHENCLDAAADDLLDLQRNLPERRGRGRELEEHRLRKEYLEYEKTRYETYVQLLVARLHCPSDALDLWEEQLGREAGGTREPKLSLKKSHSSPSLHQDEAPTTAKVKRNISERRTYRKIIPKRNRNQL
UniProt P11908: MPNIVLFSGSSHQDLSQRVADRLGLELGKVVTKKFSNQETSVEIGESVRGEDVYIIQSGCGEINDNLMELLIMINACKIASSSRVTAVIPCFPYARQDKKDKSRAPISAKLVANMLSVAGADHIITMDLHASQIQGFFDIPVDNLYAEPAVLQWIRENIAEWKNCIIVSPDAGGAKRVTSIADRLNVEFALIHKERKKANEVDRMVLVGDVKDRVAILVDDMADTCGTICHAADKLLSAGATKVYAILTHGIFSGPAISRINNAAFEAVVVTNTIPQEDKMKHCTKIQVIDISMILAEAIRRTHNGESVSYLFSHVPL
UniProt Q14997: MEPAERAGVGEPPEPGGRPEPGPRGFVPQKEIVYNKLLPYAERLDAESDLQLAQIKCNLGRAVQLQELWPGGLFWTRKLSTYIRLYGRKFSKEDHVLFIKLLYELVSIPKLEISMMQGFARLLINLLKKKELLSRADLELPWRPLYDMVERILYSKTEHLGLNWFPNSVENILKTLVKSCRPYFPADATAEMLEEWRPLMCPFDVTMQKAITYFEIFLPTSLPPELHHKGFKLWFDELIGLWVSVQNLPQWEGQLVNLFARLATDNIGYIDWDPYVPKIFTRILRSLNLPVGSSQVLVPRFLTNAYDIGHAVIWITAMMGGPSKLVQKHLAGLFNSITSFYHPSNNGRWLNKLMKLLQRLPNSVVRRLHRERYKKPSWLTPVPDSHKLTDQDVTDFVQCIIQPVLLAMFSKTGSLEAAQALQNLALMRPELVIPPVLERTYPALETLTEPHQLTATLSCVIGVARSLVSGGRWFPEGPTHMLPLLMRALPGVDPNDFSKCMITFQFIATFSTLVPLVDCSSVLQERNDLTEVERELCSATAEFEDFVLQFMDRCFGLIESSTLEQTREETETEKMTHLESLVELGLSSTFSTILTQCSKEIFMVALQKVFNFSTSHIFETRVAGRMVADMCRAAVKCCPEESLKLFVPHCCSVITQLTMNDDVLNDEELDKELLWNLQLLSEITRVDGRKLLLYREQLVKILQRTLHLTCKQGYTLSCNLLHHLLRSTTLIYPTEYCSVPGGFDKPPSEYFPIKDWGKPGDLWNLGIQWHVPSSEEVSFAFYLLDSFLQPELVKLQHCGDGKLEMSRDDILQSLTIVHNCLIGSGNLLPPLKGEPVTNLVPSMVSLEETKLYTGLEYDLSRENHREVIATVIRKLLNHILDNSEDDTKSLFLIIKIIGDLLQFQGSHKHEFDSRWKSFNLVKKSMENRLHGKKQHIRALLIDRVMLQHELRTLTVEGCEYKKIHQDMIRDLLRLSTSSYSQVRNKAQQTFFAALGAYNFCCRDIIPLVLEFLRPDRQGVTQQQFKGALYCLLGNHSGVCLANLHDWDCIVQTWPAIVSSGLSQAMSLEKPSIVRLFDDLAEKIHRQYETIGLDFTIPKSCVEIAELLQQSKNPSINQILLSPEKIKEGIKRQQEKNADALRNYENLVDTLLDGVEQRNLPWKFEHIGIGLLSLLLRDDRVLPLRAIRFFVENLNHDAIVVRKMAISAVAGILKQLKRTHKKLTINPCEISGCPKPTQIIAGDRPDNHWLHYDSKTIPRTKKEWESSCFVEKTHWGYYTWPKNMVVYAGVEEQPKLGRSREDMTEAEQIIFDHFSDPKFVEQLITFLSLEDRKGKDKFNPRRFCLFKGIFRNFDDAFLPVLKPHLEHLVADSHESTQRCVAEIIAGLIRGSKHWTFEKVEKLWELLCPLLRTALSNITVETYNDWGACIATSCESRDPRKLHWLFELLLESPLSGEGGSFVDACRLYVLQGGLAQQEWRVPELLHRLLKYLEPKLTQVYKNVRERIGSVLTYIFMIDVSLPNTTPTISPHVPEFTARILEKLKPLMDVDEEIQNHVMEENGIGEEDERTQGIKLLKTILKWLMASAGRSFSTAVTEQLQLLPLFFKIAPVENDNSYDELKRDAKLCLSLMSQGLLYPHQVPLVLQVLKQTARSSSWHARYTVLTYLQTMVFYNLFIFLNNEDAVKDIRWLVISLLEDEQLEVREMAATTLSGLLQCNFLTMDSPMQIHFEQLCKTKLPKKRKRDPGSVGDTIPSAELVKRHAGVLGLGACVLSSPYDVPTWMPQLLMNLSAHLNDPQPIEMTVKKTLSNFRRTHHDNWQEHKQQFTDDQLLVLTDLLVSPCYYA
UniProt P20962: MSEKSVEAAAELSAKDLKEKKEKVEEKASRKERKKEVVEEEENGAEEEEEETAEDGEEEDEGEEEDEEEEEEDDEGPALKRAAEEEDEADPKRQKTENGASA

Legend:
Assay in all cases: log2 fold change, soluble protein after heating vs DMSO (PISA); higher = thermal stabilisation; K562 lysate, 10 uM; active = over 0.2 and 3.5 SD of the protein, either way, in both replicates (recomputed)
[1] = compound: C1=CC=C(C=C1)[C@H](COC2=CC3=C(C=C2)NC(=O)N3)NC(=O)C4=CC=CN(C4=O)CC5=CC(=C(C=C5)F)F
Summary of the method: (§1)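 Pellets of K562 cells were dounce-homogenised in PBS pH 7.4 with 1 mM MgCl2, and the crude extract was held at 1 mg/mL protein for a 30 min treatment with 10 μM compound. Aliquots were heated for 3 min over 48°C-58°C and pooled before NP-40 was added to 0.5% at 4°C. The supernatant from 21,000xg for 90 min was quantified by TMTpro 16plex LC-MS/MS with channel sums equalised. Values are reported from duplicates as log-two fold change in thermal stability relative to solvent controls.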

[2] = compound: CC1=C(SC2=C1C(=N[C@H](C3=NN=C(N32)C)CC(=O)N)C4=CC=C(C=C4)Cl)C
Summary of the method: as §1

[3] = compound: CC1=C2C(=CC=C1)N=C(N(C2=O)C3=CC=CC=C3C)CN4C=NC5=C(N=CN=C54)N
Summary of the method: as §1

[4] = compound: Cc1sc2c(c1C)C(c1ccc(Cl)cc1)=N[C@@H](CC(=O)OC(C)(C)C)c1nnc(C)n1-2
Summary of the method: as §1

[5] = compound: c1ccc([C@@H]2C[C@H]2NC2CCNCC2)cc1
Summary of the method: as §1

Measured: log2 fold change

PTCD3 (UniProt Q96EY7)
inactive: [1] 0.04 | [2] 0.042 | [3] 0.024 | [4] 0.06 | [5] 0.025

PSMD6 isoform 4 (UniProt Q15008)
inactive: [1] -0.007 | [2] 0.018 | [3] -0.003 | [4] -0.011 | [5] 0.026

PTPMT1 (UniProt Q8WUK0)
inactive: [1] -0.186 | [2] 0.113 | [3] 0.012 | [4] 0.041 | [5] 0.083

PSMG2 (UniProt Q969U7)
inactive: [1] -0.021 | [2] 0.008 | [3] -0.013 | [4] -0.027 | [5] -0.042

2 records drawn at random from the list so far:
PSMG2 (UniProt Q969U7)
inactive: [1] -0.021 | [2] 0.008 | [3] -0.013 | [4] -0.027 | [5] -0.042

PSMD6 isoform 4 (UniProt Q15008)
inactive: [1] -0.007 | [2] 0.018 | [3] -0.003 | [4] -0.011 | [5] 0.026

More results follow:

PSMD14 (UniProt O00487)
inactive: [1] -0.022 | [2] 0.006 | [3] -0.034 | [4] 0.059 | [5] 0.04

PSD4 (UniProt Q8NDX1)
inactive: [1] -0.043 | [2] 0.014 | [3] 0 | [4] 0.009 | [5] 0.01

PRPS2 isoform 2 (UniProt P11908)
inactive: [1] -0.031 | [2] 0.019 | [3] 0.004 | [4] 0.022 | [5] 0.02

PSME4 (UniProt Q14997)
inactive: [1] 0.005 | [2] -0.009 | [3] 0.066 | [4] -0.003 | [5] -0.025

PTMS (UniProt P20962)
inactive: [1] 0.037 | [2] 0.004 | [3] 0.016 | [4] 0.013 | [5] 0.007
